No constants are given. Whether binding was seen depends on the method and setting. Binding seen in cells or lysates may run through a third protein.
Biological target: apoptosis-associated speck-like complex containing a CARD (ASC), released from LPS/ATP treated THP1 cells (human (endogenous in THP1)) (UniProt Q9ULZ3)
Test: co-IP; clarified supernatants of LPS/ATP treated THP1 cells (2x10^7 cells/ml); anti-ASC mouse monoclonal (MBL, 1:62.5) or control mouse IgG1, 2h at 4°C, protein A/G beads, washed in cold PBS; caspase-1 probed on immunoblot with YK antibody

Protein sequences, listed by entry. Tags and fused reporters are not part of them. Lines headed by an entry give the natural chain unless they say otherwise; changes in a name come on top.
UniProt Q9ULZ3: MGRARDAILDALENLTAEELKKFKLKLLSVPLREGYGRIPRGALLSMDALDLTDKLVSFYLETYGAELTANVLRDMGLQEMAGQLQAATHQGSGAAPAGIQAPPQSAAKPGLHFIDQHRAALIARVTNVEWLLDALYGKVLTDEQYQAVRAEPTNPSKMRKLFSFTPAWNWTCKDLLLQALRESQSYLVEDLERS
UniProt P29466: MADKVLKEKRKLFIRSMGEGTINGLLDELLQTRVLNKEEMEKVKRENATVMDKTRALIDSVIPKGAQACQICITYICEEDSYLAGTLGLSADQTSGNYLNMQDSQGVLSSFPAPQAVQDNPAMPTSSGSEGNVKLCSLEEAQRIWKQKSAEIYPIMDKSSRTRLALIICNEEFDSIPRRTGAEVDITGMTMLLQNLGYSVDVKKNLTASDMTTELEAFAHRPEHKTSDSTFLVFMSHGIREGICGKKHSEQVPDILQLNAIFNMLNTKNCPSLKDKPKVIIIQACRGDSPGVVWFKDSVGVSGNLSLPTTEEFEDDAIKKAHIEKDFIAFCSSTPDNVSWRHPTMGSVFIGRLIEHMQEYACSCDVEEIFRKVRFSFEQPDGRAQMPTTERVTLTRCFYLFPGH

mature caspase-1 (p20/p10), released from LPS/ATP treated THP1 cells (from UniProt P29466 120-297; P29466 317-404) (complex)
binding: no binding
